Record: PubChem BioAssay AID493246 (Drosophila RNAi Screening Center, 2011)
In all, the deposit lists about 21,000 reagents; this is a random part of those with a known target gene and a result. Of all reagents, 429 (2%) got an active call. 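Values are raw and not normalised between plates; calls rest on per-plate z-scores that were not deposited.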 Unmarked entries are inactive. A plus sign joins genes that one reagent is predicted to hit. Not stated in the record: the amount of reagent, the time to read-out.

- Assay: 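Genes fly cells need to grow and stay alive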 (primary screen)
- System: Drosophila Kc and S2R+ cells
- Knock-down reagent: long dsRNA against Drosophila genes
- Detection: 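Raw, unnormalised count of remaining cells in each well; per-plate z-scores of cell number underlie the calls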
- Scale: Kc cell number and S2R+ cell number: higher = more cells remaining
- Rule for the call: 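Counted as a hit if cell number falls by a z-score of at least 3 within its plate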

What is on record for Bruce [DRSC16015]?
Kc cell number, rep 1: 1.69e6; Kc cell number, rep 2: 1.58e6; S2R+ cell number, rep 1: 1.20e6; S2R+ cell number, rep 2: 1.29e6

For Prosbeta1 [DRSC07159], what was measured?
Kc cell number, rep 1: 8.88e5 (active); Kc cell number, rep 2: 9.74e5; S2R+ cell number, rep 1: 5.62e5; S2R+ cell number, rep 2: 6.25e5

With Klp64D [DRSC11204], what was measured?
Kc cell number, rep 1: 1.35e6; Kc cell number, rep 2: 1.58e6; S2R+ cell number, rep 1: 1.16e6; S2R+ cell number, rep 2: 1.21e6

For CG18284 [DRSC02661], how do the results read?
Kc cell number, rep 1: 1.36e6; Kc cell number, rep 2: 1.23e6; S2R+ cell number, rep 1: 1.10e6; S2R+ cell number, rep 2: 1.02e6

What is on record for CG18284 [DRSC20756]?
Kc cell number, rep 1: 1.23e6; Kc cell number, rep 2: 1.49e6; S2R+ cell number, rep 1: 1.11e6; S2R+ cell number, rep 2: 1.15e6

Which result is listed for SmD3 [DRSC07553]?
Kc cell number, rep 1: 1.26e6; Kc cell number, rep 2: 1.38e6; S2R+ cell number, rep 1: 7.77e5; S2R+ cell number, rep 2: 8.97e5

For Mur2B [DRSC18545], what was measured?
Kc cell number, rep 1: 1.73e6; Kc cell number, rep 2: 1.78e6; S2R+ cell number, rep 1: 1.05e6; S2R+ cell number, rep 2: 1.19e6

Which result is listed for Mur2B [DRSC18546]?
Kc cell number, rep 1: 1.53e6; Kc cell number, rep 2: 1.60e6; S2R+ cell number, rep 1: 1.02e6; S2R+ cell number, rep 2: 1.13e6

With CG14787 [DRSC18606], how do the results read?
Kc cell number, rep 1: 1.57e6; Kc cell number, rep 2: 1.58e6; S2R+ cell number, rep 1: 8.87e5; S2R+ cell number, rep 2: 1.04e6

What did the screen give for alpha-Man-IIa [DRSC15393]?
Kc cell number, rep 1: 1.54e6; Kc cell number, rep 2: 1.52e6; S2R+ cell number, rep 1: 1.29e6; S2R+ cell number, rep 2: 1.41e6

With CG14377 [DRSC14837], what was measured?
Kc cell number, rep 1: 1.40e6; Kc cell number, rep 2: 1.40e6; S2R+ cell number, rep 1: 1.18e6; S2R+ cell number, rep 2: 1.33e6

With CG7567 [DRSC16258], what does the deposit list?
Kc cell number, rep 1: 1.45e6; Kc cell number, rep 2: 1.44e6; S2R+ cell number, rep 1: 9.97e5; S2R+ cell number, rep 2: 1.10e6

What did the screen give for Calx [DRSC13457]?
Kc cell number, rep 1: 1.75e6; Kc cell number, rep 2: 1.90e6; S2R+ cell number, rep 1: 1.13e6; S2R+ cell number, rep 2: 1.25e6

For Calx [DRSC13459], what does the deposit list?
Kc cell number, rep 1: 1.49e6; Kc cell number, rep 2: 1.48e6; S2R+ cell number, rep 1: 1.11e6; S2R+ cell number, rep 2: 1.09e6

How did the screen score Calx [DRSC16599]?
Kc cell number, rep 1: 1.44e6; Kc cell number, rep 2: 1.32e6; S2R+ cell number, rep 1: 1.11e6; S2R+ cell number, rep 2: 1.16e6

For CG9919 [DRSC20219], how do the results read?
Kc cell number, rep 1: 1.71e6; Kc cell number, rep 2: 1.72e6; S2R+ cell number, rep 1: 1.22e6; S2R+ cell number, rep 2: 1.36e6

How did the screen score CG31974 [DRSC00522]?
Kc cell number, rep 1: 1.51e6; Kc cell number, rep 2: 1.57e6; S2R+ cell number, rep 1: 1.08e6; S2R+ cell number, rep 2: 1.28e6

How did the screen score CG34450 [DRSC17822]?
Kc cell number, rep 1: 6.38e5; S2R+ cell number, rep 1: 9.55e5

For CG31683 + CG18858 [DRSC02703], what does the deposit list?
Kc cell number, rep 1: 1.50e6; Kc cell number, rep 2: 1.59e6; S2R+ cell number, rep 1: 1.25e6; S2R+ cell number, rep 2: 3.13e5

With TpnC41C [DRSC04916], what was measured?
Kc cell number, rep 1: 1.56e6; Kc cell number, rep 2: 1.63e6; S2R+ cell number, rep 1: 1.24e6; S2R+ cell number, rep 2: 1.31e6

How did the screen score CG42402 [DRSC21116]?
Kc cell number, rep 1: 1.41e6; Kc cell number, rep 2: 1.49e6; S2R+ cell number, rep 1: 1.00e6; S2R+ cell number, rep 2: 1.09e6

Targets listed so far whose gene name begins with M or m:
Mur2B [DRSC18545] | Kc cell number, rep 1 = 1.73e6; Kc cell number, rep 2 = 1.78e6; S2R+ cell number, rep 1 = 1.05e6; S2R+ cell number, rep 2 = 1.19e6
Mur2B [DRSC18546] | Kc cell number, rep 1 = 1.53e6; Kc cell number, rep 2 = 1.60e6; S2R+ cell number, rep 1 = 1.02e6; S2R+ cell number, rep 2 = 1.13e6
